Laboratory results: patent US10556933B2 (Affibody AB, priority 2007, dated 2020)

Experiment: peptide synthesis
Details: whole synthesis

“AEAKYAKEMWIAWEEIRNLPNLNGWQMTAFIAKLLDDPSQSSELLSEAKKLNDSQAPKC” showed a crude yield of 15%.
